Experimental data: patent US20200199217A1
Results are given in words; binding and its absence hold for the method and conditions named. Some entries that bind do so weakly or less than the wild type.

By UniProt entry, the sequences of proteins in these tests, tags left out. Where a name states a change or a piece, a line headed by the entry shows the natural chain unless it says otherwise.
UniProt Q9UHA7: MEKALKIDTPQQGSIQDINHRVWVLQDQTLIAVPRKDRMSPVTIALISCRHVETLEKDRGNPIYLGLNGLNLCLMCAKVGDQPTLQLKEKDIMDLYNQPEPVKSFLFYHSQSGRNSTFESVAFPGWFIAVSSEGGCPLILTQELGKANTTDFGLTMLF
UniProt Q9NZH8: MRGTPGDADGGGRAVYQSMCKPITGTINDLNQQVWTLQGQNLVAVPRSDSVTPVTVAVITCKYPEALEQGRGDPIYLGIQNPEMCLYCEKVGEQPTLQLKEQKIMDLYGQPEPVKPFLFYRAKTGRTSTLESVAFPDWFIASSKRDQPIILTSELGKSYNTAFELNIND

What was measured:
hu-IL-36α (human) = hu-IL-36α (human) (UniProt Q9UHA7); test: summary of ELISA and HEK-Blue screening of yeast Fab supernatants
hu-IL-36γ (human) = hu-IL-36γ (human) (UniProt Q9NZH8); test: as above

binding (hu-IL-36α (human)): binds
binding (hu-IL-36γ (human)): binds
B1: mAb5.0 Fab (Fab, V domains shown)
VH: EVQLLESGGGLVQPGGSLRLSCAASGFTFSTYAMSWVRQAPGKGLEWVSGISGGSGYTYYADSVKGRFTISRDNSKNTLYLQMNSLRAEDTAVYYCARVVTYRDPPASFDYWGQGTLVTVSS
VL: QSVLTQPPSVSGAPGQRVTISCTGSSSNIGAHYDVHWYQQLPGTAPKLLIYGNDNRPSGVPDRFSGSKSGTSASLAITGLQAEDEADYYCQSYDYSLKAYVFGGGTKLTVL
